Where a name gives a salt, the structure may show the parent alone. The list shows a part of the results. The calls rarely recur for the same compound in another form.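 In K562 cells expressing nanoluciferase-fused kinases, luminescence was recorded at 4 h intervals between 2 and 18 h, normalized as percent of control with DMSO at 100% and a positive control at 0%. A significant (2 sigma) signal drop marks a time point as decreased. The authors' rule for a hit is not shown and takes in more than the number of time points.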
Assays:
Assay in all cases: number of time points (of 5) at which kinase-Nluc abundance scored as decreased, DMSO-normalised (count); higher = more persistent destabilization
Settings in all cases: K562; 2-18 h
NTRK3 = NTRK3 (UniProt Q16288)
PAK4 = PAK4 (UniProt O96013)
PBK = PBK (UniProt Q96KB5)
PDGFRB = PDGFRB (UniProt P09619)
PDK1 = PDK1 (UniProt Q15118)
PDPK1 = PDPK1 (UniProt O15530)
PIK4CA = PIK4CA (UniProt P42356)
PIK4CB = PIK4CB (UniProt Q9UBF8)
PLK1 = PLK1 (UniProt P53350)
PRKAA1 = PRKAA1 (UniProt Q13131)

Sequences of proteins named here, by UniProt entry; tags and fusion partners are left off. A change or cut given only in a name is not applied to a line headed by its entry.
UniProt O96013: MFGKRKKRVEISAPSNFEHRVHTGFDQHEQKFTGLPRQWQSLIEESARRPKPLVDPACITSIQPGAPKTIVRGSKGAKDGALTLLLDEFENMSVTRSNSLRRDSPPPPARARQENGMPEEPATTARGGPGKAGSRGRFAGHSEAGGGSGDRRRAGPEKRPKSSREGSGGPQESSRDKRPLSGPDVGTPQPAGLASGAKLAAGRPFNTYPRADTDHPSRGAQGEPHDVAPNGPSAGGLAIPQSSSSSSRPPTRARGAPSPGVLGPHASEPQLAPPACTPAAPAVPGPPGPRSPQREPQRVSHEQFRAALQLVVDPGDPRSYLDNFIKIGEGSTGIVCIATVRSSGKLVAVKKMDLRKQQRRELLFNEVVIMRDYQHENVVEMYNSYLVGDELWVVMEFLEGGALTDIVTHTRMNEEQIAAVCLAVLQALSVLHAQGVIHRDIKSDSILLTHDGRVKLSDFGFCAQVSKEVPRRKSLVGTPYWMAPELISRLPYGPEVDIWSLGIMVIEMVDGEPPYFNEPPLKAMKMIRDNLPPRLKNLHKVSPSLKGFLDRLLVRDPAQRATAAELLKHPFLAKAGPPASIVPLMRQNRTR
UniProt Q96KB5: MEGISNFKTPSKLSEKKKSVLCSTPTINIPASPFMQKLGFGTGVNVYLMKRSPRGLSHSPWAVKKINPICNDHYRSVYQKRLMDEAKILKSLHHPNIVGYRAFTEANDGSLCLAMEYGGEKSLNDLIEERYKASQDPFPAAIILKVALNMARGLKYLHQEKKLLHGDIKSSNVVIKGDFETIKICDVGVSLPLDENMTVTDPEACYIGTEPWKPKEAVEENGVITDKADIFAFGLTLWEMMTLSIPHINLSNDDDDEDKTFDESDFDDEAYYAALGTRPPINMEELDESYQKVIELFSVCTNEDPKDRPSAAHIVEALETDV
UniProt Q15118, whole entry, looked up: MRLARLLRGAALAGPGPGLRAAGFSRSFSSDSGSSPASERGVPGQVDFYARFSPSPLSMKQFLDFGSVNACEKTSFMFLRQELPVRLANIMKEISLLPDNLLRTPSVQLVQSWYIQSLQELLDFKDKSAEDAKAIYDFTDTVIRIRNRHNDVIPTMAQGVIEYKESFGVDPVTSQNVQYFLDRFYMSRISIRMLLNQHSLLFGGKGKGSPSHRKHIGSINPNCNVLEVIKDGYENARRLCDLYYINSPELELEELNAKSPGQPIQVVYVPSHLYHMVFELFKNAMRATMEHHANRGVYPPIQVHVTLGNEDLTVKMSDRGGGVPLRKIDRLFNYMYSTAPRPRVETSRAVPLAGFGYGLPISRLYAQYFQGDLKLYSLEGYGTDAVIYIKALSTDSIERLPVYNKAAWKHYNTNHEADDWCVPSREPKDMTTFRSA
UniProt O15530: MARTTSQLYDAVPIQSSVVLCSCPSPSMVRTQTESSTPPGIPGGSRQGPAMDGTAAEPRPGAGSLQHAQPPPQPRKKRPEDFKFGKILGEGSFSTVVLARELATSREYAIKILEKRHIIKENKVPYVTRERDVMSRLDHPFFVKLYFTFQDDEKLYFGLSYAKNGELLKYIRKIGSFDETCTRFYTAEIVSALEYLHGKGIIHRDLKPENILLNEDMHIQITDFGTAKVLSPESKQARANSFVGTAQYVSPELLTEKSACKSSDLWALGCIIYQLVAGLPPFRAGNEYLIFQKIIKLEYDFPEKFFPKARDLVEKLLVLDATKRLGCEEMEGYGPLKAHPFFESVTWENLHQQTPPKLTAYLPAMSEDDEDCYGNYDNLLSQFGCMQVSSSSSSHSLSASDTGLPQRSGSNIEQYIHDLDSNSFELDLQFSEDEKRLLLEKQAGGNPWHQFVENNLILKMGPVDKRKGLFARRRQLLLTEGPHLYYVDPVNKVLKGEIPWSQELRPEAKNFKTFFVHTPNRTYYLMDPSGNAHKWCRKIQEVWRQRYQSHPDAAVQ
UniProt P42356, whole entry, looked up: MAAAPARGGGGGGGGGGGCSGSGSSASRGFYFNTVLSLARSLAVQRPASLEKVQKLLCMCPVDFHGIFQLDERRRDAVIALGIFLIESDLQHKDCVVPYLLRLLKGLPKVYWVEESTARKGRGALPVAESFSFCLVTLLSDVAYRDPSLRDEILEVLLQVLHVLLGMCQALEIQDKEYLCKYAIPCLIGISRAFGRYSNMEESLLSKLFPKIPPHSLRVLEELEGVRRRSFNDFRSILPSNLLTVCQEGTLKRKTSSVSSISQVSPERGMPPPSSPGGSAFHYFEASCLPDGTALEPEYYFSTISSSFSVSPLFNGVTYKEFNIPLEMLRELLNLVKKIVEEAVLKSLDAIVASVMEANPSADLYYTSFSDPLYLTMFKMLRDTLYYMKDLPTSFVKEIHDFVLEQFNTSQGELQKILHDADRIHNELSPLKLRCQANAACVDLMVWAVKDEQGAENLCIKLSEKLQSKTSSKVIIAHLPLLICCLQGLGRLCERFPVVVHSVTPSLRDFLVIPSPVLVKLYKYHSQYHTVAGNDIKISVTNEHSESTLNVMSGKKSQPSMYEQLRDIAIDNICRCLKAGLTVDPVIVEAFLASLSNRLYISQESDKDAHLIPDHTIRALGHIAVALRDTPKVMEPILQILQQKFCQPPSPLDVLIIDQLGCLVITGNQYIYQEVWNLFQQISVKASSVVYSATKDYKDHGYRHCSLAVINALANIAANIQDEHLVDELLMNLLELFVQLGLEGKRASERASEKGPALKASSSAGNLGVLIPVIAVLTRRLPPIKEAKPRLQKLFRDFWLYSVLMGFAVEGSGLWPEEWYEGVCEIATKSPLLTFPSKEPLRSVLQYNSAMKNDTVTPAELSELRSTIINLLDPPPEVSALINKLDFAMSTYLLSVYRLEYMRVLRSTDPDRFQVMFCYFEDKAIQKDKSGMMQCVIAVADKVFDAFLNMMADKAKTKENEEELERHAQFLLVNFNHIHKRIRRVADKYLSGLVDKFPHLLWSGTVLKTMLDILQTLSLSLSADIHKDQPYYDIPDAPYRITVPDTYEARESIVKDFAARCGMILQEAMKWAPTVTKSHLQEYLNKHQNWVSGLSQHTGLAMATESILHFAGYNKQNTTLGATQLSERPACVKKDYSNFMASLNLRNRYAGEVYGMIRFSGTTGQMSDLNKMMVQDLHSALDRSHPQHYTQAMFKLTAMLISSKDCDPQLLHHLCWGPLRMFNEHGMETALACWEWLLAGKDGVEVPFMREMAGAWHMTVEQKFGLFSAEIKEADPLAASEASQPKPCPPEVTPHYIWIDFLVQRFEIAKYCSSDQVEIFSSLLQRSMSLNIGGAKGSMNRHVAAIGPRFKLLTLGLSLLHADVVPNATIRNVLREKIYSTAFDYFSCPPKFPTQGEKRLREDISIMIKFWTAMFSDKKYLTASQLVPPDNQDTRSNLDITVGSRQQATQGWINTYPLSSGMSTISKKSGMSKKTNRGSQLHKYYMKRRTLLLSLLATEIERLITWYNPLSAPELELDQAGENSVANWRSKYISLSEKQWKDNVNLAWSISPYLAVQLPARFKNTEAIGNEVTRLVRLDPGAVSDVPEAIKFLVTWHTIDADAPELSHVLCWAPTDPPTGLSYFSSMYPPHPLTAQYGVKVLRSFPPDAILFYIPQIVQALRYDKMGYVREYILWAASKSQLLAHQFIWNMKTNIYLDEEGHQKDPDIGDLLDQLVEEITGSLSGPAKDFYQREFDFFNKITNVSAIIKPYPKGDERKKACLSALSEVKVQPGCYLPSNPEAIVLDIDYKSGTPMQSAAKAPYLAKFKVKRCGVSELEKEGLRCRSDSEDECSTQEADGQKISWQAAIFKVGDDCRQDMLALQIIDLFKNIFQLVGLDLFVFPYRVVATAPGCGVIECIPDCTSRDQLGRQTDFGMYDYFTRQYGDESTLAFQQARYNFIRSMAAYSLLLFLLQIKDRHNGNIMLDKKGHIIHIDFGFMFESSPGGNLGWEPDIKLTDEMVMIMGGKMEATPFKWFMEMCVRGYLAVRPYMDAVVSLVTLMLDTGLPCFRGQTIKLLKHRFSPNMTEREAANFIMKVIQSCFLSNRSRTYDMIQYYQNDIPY
UniProt Q9UBF8: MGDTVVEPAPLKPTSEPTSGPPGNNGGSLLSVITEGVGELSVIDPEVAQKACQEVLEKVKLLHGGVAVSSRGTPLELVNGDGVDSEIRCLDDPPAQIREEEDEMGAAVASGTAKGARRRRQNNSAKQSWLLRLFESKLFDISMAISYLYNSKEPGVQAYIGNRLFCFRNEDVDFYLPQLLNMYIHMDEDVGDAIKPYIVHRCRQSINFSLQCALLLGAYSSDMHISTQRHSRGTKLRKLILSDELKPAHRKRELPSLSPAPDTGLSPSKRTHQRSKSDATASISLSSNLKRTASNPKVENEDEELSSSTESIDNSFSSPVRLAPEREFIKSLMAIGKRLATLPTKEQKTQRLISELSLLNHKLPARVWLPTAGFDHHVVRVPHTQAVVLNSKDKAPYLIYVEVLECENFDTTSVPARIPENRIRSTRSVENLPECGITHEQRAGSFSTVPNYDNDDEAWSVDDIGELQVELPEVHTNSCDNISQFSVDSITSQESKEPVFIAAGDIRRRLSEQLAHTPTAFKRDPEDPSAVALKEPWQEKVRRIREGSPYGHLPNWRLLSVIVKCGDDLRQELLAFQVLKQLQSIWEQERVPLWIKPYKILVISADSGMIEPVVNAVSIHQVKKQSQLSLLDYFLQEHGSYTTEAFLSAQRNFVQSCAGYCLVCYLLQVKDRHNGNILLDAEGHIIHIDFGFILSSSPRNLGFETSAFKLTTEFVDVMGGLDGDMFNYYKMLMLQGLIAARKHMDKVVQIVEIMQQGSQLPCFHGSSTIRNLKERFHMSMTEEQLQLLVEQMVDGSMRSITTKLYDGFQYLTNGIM
UniProt P53350, whole entry: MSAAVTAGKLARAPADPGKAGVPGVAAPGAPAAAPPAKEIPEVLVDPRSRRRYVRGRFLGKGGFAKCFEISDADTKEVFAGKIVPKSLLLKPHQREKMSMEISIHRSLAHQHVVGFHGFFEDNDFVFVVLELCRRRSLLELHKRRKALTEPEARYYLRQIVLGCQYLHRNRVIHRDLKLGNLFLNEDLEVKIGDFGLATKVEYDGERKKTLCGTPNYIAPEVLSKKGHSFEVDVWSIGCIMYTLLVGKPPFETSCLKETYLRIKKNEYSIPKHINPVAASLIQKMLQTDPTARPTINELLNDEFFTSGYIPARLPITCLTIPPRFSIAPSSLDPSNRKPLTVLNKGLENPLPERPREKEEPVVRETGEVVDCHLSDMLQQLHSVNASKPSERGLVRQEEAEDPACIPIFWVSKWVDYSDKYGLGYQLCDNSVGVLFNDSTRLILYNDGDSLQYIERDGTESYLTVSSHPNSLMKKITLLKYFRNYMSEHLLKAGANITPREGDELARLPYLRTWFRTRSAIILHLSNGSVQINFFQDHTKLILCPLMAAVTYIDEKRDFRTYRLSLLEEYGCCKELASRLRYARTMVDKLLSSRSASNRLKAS
UniProt Q13131: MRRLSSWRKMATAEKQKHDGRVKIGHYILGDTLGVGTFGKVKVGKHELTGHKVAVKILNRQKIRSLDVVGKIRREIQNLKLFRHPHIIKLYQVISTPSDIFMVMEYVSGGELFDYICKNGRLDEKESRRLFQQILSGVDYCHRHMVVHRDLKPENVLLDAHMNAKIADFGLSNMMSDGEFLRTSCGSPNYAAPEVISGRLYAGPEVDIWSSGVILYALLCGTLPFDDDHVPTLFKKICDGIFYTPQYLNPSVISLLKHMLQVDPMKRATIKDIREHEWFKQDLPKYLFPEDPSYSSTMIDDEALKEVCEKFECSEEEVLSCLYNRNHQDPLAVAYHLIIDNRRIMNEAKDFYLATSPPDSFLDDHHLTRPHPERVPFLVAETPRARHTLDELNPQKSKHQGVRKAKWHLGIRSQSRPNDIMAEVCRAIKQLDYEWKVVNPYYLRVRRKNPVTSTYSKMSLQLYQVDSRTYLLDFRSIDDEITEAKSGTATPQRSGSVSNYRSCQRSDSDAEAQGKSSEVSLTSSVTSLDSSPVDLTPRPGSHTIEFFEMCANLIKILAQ

Measured: number of time points

N#CC(c1ccnc(OCc2ccc(CN3CCOCC3)cc2)n1)c1nc2ccccc2s1 (stereo not given) [Bentamapimod] (2.5 µM)
0: all assays above

CC(C)S(=O)(=O)c1ccc2nccc(Nc3ccc4scnc4c3)c2c1 (10 µM)
4: PDPK1
0: all other assays above

CN(C)S(=O)(=O)c1ccc2c(c1)/C(=C/c1cc3c([nH]1)CCCC3)C(=O)N2 (2.5 µM)
1: PBK
2: PDPK1
0: all other assays above

Copied from above (two entries):
CC(C)S(=O)(=O)c1ccc2nccc(Nc3ccc4scnc4c3)c2c1 (10 µM)
4: PDPK1
0: all other assays above

CN(C)S(=O)(=O)c1ccc2c(c1)/C(=C/c1cc3c([nH]1)CCCC3)C(=O)N2 (2.5 µM)
1: PBK
2: PDPK1
0: all other assays above

Later entries:

COc1cc(/C=C/C(=O)N2CCC=CC2=O)cc(OC)c1OC [Piperlongumine] (2.5 µM)
5: PIK4CB
0: all other assays above

O=C1NC(=O)/C(=C/c2ccc3nccc(-c4ccncc4)c3c2)S1 (10 µM)
0: all assays above

CC(C)N1CCN(c2ccc(Nc3ncc4cc5n(c4n3)C3(CCCCC3)CNC5=O)nc2)CC1 [Lerociclib (dihydrochloride)] (2 µM)
2: PDGFRB
0: all other assays above

CCCCCCCC/C=C\CCCCCCCCCCCC(=O)O [Erucic acid] (10 µM)
0: all assays above

CN(C)CCC=C1c2ccccc2CCc2ccccc21 [Amitriptyline (hydrochloride)] (2.5 µM)
0: all assays above

O=C(CNc1cccc(Cl)c1)NC1CCCN(c2ncnc3[nH]ccc23)C1 (stereo not given) (10 µM)
0: all assays above

CC(C)c1cccc(C(C)C)c1N1C(=O)c2ccc(N)cc2C1=O (2.5 µM)
0: all assays above

CC(C)C[C@@H](C(=O)Nc1ccn(C[C@@H](O)CO)n1)N1CC(Oc2ccccc2Cl)=CC1=O [Dorzagliatin] (10 µM)
0: all assays above

Cc1ncc(NC(=O)NC2c3ccccc3-c3ccccc32)c(-c2ccccc2)n1 (10 µM)
0: all assays above

Cc1cc(Nc2ncnc3ccc(-c4ccc(CNCCS(C)(=O)=O)o4)cc23)ccc1Oc1ccn2ncnc2c1 [ARRY-380 (analog )] (2.5 µM)
0: all assays above

Cc1cc2sc(NC(=O)Cc3ccccc3)nc2cc1Cl (10 µM)
0: all assays above

COc1ccc(N=Nc2c(N)n[nH]c2N)cc1 (10 µM)
0: all assays above

CCN(CC)CCC(=O)N1N=C(c2c(-c3ccccc3)c3cc(Br)ccc3[nH]c2=O)CC1c1ccc(Br)cc1 (stereo not given) (2.5 µM)
0: all assays above

Cc1c(-c2ccc(C(N)=O)c3[nH]c4cc(C(C)(C)O)ccc4c23)cccc1-n1cnc2ccccc2c1=O (2.5 µM)
0: all assays above

FC(F)(F)c1ccc(/C=C/c2nc(COc3ccc(CCCCn4ccnn4)cc3)co2)cc1 [Mubritinib] (10 µM)
1: PDPK1
0: all other assays above

O=C(Nc1cccc(C(F)(F)F)c1)c1cccc2cc(Oc3cc(CO)ncn3)ccc12 (10 µM)
0: all assays above

Cc1cc(Nc2nc(CC3(C(=O)O)CCN(C(=O)c4cccc(Cl)c4Cl)CC3)ccc2F)n[nH]1 (10 µM)
2: NTRK3 | PDGFRB | PIK4CB
1: PDPK1
0: all other assays above

C=C[C@@](C)(/C=C/c1ccc(O)cc1)CCC=C(C)C [Bakuchiol] (10 µM)
0: all assays above

CNC(=O)c1cc2c(Oc3ccc(NC(=S)NC(=O)Cc4ccccc4)cc3F)ccnc2cc1OC [TAS-115 mesylate] (10 µM)
1: PRKAA1
4: PDPK1
3: PIK4CA | PIK4CB | PLK1
0: all other assays above

Cn1cnc([N+](=O)[O-])c1C[N+](C)(C)C/C=C/C(=O)Nc1cc2c(Nc3ccc(Cl)c(Br)c3)ncnc2cn1 [Tarloxotinib (bromide)] (10 µM)
0: all assays above

Cc1cc(C)nc(NS(=O)(=O)c2ccc(NC(=S)NC(=O)COc3ccc(Br)cc3Cl)cc2)n1 (2.5 µM)
0: all assays above

CN(C)c1nc2c(Br)c(Br)c(Br)c(Br)c2[nH]1 (10 µM)
0: all assays above

CCc1ccc(OCC(=O)Nc2ccc(F)c([N+](=O)[O-])c2)cc1 (10 µM)
0: all assays above

O=C(Nc1cccc(Nc2ncc(Br)c(NCCc3cnc[nH]3)n2)c1)N1CCCC1 (10 µM)
3: PDGFRB | PRKAA1
2: PIK4CA
4: PDPK1
0: all other assays above

CC1(C)Cc2c(sc(NC(=S)NC(=O)c3ccccc3)c2C(=O)O)CO1 (10 µM)
0: all assays above

Cc1cnc(NC2CCOCC2)nc1-n1cnc(C(=O)N[C@H](CN)c2cc(F)cc(Cl)c2)c1 (10 µM)
0: all assays above

CC/C(=N\NC(=O)c1ccnc(NCCCN2CCOCC2)c1)c1ccc(Cl)cc1O (2.5 µM)
0: all assays above

Nc1nccc(Oc2ccc(NC(=O)c3c[nH]cc(-c4ccc(F)cc4)c3=O)cc2F)c1Cl (10 µM)
1: PRKAA1
4: PDGFRB | PIK4CA
0: all other assays above

CC(C)(C)n1nc(Cc2ccccc2O)c2c(N)ncnc21 (10 µM)
0: all assays above

C[C@H](Nc1ncnc2[nH]cnc12)c1cc2ccc(F)cc2nc1-c1ccccn1 (10 µM)
0: all assays above

— the supplement of paper PMC12823440, “Inhibitors supercharge kinase turnover through native proteolytic circuits” (Nature, 2025)
